Measurements from patent EP0627489B1, “Methods and compositions for the treatment of malignancies in which a protein kinase is associated” (WASHINGTON RESEARCH FOUNDATION, priority 1990, dated 1991).
Some of these results come from one statement about several compounds together.

What was measured:
[1] = molecular target: T1, TC.PTPase (Homo sapiens, UniProt P17706); experiment: Effectors of PTPase activity, full-length enzyme; type: biochemical; conditions: full-length form; polyanion effect only with RCML as substrate
T1 construct: open reading frames of the full-length 48-kDa T cell PTPase (TC.PTPase); made in house; host or cells: Sf9 (Spodoptera frugiperda) insect cells, recombinant baculovirus (pVL 941)
T1 sequence (P17706 1-415): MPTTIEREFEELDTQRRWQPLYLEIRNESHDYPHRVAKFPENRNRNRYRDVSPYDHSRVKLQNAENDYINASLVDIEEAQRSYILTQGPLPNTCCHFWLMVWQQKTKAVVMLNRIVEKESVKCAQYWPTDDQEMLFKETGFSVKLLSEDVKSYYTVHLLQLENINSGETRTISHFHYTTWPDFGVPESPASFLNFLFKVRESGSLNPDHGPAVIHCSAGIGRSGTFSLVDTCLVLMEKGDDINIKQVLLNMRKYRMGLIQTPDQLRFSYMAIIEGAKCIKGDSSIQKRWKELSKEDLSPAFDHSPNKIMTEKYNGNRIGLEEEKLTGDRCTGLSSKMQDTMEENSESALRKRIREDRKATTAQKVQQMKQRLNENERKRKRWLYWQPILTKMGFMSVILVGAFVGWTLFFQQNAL
Protocol: (§1) Cell extracts or purified enzymes were assayed for tyrosine phosphatase using a method described by Tonks et al., in "Purification of the Major Protein-tyrosine-phosphatases of Human Placenta," J. Biol. Chem. (263):6722-6730, 1988, based on measurement of the release of ^32P from labeled substrate. Since phosphorylation of reduced, carboxyamidomethylated, maleylated (RCM)-lysozyme is not stoichiometric, concentrations are expressed in terms of ^32P phosphotyrosine. Briefly, a mixture of 0.02 ml of PTPase (diluted to less than 1 unit/ml in Buffer A) and 0.02 ml of Buffer A was warmed at 30°C for 5 minutes. Buffer A is composed of 25 mM imidazole HCl […], 1 mg/ml BSA, 0.1% (v/v) β-mercaptoethanol. […] The reaction was terminated after approximately 10 minutes by addition of 0.18 ml of 20% (w/v) trichloroacetic acid and 0.02 ml of 25 mg/ml BSA, added as a carrier protein. The suspension was vortexed, allowed to stand on ice for 10 minutes, and centrifuged at 12,500 x g for 3 minutes. A 0.2-ml aliquot of the supernatant was added to 1 ml of Aquasol scintillant and counted in a Beckman LS7000 scintillation counter. […] Blank incubations were performed in which the PTPase was replaced by Buffer A, and total ^32P was determined by counting 0.02 ml of the substrate. […] One unit of PTPase activity is defined as that amount which releases 1 nmol of phosphate/min. […]

[2] = molecular target: T2, TCΔC11.PTPase (Homo sapiens, UniProt P17706); experiment: Effectors of PTPase activity, truncated enzyme; type: biochemical; conditions: truncated form; polyanion effect only with RCML as substrate
T2 construct: a truncated PTPase in which an 11-kDa segment was deleted from the carboxyl end (TCΔC11.PTPase-transfected cells); made in house; host or cells: Sf9 (Spodoptera frugiperda) insect cells, recombinant baculovirus (pVL 941)
T2 sequence (P17706 1-317 limits assumed): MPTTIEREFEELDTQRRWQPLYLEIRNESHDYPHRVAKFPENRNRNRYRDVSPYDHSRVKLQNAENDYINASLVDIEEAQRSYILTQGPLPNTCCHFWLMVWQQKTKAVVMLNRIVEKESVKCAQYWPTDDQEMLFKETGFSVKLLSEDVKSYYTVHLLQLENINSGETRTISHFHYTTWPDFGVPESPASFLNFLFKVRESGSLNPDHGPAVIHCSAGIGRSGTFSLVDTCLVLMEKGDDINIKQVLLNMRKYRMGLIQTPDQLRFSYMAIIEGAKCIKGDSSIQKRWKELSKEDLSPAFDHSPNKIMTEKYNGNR
Protocol: as §1

For Calcium, the “effect of the effector on enzyme activity (in words)” value [1] was “essentially without effect” and the “effect of the effector on enzyme activity (in words)” value [2] was “essentially without effect”.
